Laboratory results: PubChem BioAssay AID1259308 (NCATS, 2017)
Shown is an unselected part of about 59,000 reagents. About 1,510 of them (2.6%) count as active. 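Calls use total luciferase alone and ignore viability, so some active siRNAs may act by altering cell number.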 The numbers tell different reagents against one gene apart.

Aim: 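Knock-downs that increase output of a recombinant reporter protein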 (primary screen)
Cell system: human HEK293 embryonic kidney cells stably expressing firefly luciferase (HEK-CMV-Luc2-Hygro)
Knock-down reagent: single siRNA against human genes, 0.8 pmol siRNA per well
Time to read-out: 72 h
Measured: 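Luciferase light (ONE-Glo) measured on one replicate plate set and viability (CellTiter-Glo) on the other, scaled to a negative control siRNA, with robust z-scores and luciferase per cell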
Scale: total luciferase, z-score and total luciferase, % of control: higher = more reporter protein produced; luciferase per cell, z-score: higher = more reporter output per viable cell; viable cells, % of control: higher = more viable cells
Call rule: 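Active when the median/MAD z-score for overall luciferase is greater than 3; a gene was taken forward for validation with new siRNAs if at least two of its three siRNAs passed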
Calls: active = raised luciferase; inactive = no rise

no.	gene	reagent no.	total luciferase, z-score	total luciferase, % of control	luciferase per cell, z-score	viable cells, % of control	Outcome
1	PRIMPOL	1	0.559	93	0.219	98.1	inactive
2	PRIMPOL	2	-0.152	78.9	-0.711	106	inactive
3	PRIMPOL	3	-0.771	66.5	-1.05	97.9	inactive
4	RBL2	1	-0.0042	81.8	-0.0197	91.9	inactive
5	RBL2	2	-0.25	76.9	-0.58	100	inactive
6	RBL2	3	0.0156	82.2	-0.624	108	inactive
7	GFRA1	1	-1.41	53.9	-1.31	85	inactive
8	GFRA1	2	1.42	110	0.852	98.4	inactive
9	GFRA1	3	-2.1	40	-1.94	74.6	inactive
10	SAMHD1	1	-1.75	47.1	-1.43	76.7	inactive
11	SAMHD1	2	0.941	101	2.7	55.2	inactive
12	SAMHD1	3	-1.21	57.7	-1.28	90.4	inactive
13	CACNG6	1	-1.59	50.2	-0.794	69.1	inactive
14	CACNG6	2	-1.3	55.9	-1.12	83.9	inactive
15	CACNG6	3	-1.09	60.2	-1.79	108	inactive
16	MPV17L2	1	-0.779	66.4	-0.731	89.9	inactive
17	MPV17L2	2	0.0103	82.1	0.0153	91.4	inactive
18	MPV17L2	3	-0.316	75.6	-0.0311	85.2	inactive
19	REN	1	-1.04	61.1	-1.44	99.8	inactive
20	REN	2	-0.665	68.7	-0.719	92.7	inactive
21	REN	3	0.212	86.1	-0.263	103	inactive
22	SMIM19	1	0.534	92.5	0.0324	102	inactive
23	SMIM19	2	1.03	102	0.501	100	inactive
24	SMIM19	3	-1.37	54.6	-0.126	63.1	inactive

Continued; the last 5 above are carried over.
no.	gene	reagent no.	total luciferase, z-score	total luciferase, % of control	luciferase per cell, z-score	viable cells, % of control	Outcome
20	REN	2	-0.665	68.7	-0.719	92.7	inactive
21	REN	3	0.212	86.1	-0.263	103	inactive
22	SMIM19	1	0.534	92.5	0.0324	102	inactive
23	SMIM19	2	1.03	102	0.501	100	inactive
24	SMIM19	3	-1.37	54.6	-0.126	63.1	inactive
25	GOLGA2P11	1	-1.27	56.6	-0.605	74.2	inactive
26	GOLGA2P11	2	0.146	84.8	-0.0371	95.7	inactive
27	GOLGA2P11	3	0.0763	83.4	0.533	81	inactive
28	ZDHHC18	1	1.34	108	0.803	98.1	inactive
29	ZDHHC18	2	-1.52	51.7	0.123	55.9	inactive
30	ZDHHC18	3	-0.399	74	-0.168	86.4	inactive
31	ZNF804A	1	0.27	87.3	-0.109	100	inactive
32	ZNF804A	2	0.32	88.2	0.423	88.2	inactive
33	ZNF804A	3	-0.266	76.6	-0.893	108	inactive
34	ABHD17C	1	0.928	100	0.671	94	inactive
35	ABHD17C	2	-0.0343	81.2	-0.393	101	inactive
36	ABHD17C	3	-0.842	65.1	0.0792	71.3	inactive
37	SH2D1A	1	0.343	88.7	-0.257	106	inactive
38	SH2D1A	2	0.995	102	2.26	62.6	inactive
39	SH2D1A	3	0.304	87.9	0.594	84	inactive
